US20170182047A9, “Post-Translational Regulation of Catalytic Activities of Cytochrome P450 46A1 and Uses Thereof” (The Board of Regents of the University of Texas System, priority 2007, published 2017)
Some entries share one result that the patent states for a list of compounds.

Amino acid sequences for entries named in this document (tags omitted). A change or cut given only in a name is not applied to a line headed by its entry.
UniProt Q9Y6A2: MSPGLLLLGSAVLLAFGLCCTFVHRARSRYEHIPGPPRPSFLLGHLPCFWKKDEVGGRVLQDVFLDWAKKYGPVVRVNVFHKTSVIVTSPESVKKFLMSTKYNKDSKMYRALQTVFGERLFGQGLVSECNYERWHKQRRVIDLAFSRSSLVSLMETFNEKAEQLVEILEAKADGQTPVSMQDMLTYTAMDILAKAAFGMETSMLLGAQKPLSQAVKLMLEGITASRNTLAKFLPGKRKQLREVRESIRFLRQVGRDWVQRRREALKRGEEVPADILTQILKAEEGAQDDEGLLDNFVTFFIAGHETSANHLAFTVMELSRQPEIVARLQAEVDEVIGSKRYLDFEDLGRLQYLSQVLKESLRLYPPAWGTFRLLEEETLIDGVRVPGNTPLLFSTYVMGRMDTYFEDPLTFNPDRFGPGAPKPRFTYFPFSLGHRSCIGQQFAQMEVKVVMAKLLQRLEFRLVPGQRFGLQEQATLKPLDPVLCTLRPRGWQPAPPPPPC

Target: full-length CYP46A1 (Homo sapiens, UniProt Q9Y6A2)
Assay: Inhibition/stimulation of cholesterol hydroxylase activity at fixed 43 μM test compound
Type: biochemical
Details: 43 μM compound

SMILES: CCOc1ccc(NC(C)=O)cc1 [Phenacetin]
- increase (stimulation) of cholesterol 24-hydroxylation: > 30%
